The test deals with T1, nephrin (wild-type, human cDNA) (human) (UniProt O60500).
T1 sequence: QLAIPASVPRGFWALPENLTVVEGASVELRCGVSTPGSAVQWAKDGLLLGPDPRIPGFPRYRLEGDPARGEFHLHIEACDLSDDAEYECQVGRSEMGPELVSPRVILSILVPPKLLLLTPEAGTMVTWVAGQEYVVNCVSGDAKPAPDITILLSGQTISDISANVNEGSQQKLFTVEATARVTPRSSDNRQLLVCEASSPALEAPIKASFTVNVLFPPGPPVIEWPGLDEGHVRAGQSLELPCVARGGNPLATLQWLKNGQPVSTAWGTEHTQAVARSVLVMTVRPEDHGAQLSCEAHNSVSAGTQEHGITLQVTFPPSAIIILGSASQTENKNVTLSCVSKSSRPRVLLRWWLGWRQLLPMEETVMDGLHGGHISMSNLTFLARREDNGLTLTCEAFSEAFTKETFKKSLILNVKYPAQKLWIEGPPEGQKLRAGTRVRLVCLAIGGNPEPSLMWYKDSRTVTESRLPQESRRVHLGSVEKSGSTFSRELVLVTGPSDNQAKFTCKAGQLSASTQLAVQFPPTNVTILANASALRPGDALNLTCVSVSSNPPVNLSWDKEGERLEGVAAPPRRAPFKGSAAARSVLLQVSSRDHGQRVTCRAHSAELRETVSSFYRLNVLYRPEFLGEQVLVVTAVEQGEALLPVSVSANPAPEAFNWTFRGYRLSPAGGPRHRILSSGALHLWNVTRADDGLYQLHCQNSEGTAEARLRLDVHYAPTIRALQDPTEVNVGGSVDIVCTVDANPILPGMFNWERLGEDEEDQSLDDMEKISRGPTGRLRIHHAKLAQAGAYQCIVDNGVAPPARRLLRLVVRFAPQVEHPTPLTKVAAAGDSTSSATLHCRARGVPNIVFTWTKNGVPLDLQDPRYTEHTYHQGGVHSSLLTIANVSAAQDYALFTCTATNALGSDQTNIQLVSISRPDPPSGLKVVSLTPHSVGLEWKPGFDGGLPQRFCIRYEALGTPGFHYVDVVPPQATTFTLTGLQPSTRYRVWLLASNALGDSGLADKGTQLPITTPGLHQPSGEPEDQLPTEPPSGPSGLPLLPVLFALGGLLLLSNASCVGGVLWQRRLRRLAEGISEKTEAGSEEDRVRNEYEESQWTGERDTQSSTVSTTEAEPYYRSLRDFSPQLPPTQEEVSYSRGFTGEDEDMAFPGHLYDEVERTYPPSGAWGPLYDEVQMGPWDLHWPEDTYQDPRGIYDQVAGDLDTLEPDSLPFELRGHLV
The test is described as follows: co-IP; HEK293T transfected with vector or nephrin; cells kept under normal (5.5 mM) or high (30 mM) glucose for 24 h; 1% Triton X-100 lysis buffer; nephrin immobilised, p38 MAPK detected by p38 antibody staining.

No constants are given. Whether binding was seen depends on the method and setting. In cells and extracts the contact can be indirect. Binding calls can cover weak binding; strength is not graded here.

Turning to “p38 mitogen-activated protein kinase (human (endogenous in HEK293T)) (enzyme)”, the binding result is recorded as “binds”.

The values are drawn from article PMC9110524.
